Experimental data published in the supplement of paper PMC10338343.
± gives the standard deviation. Only a part is listed here, and it is no random draw. The uncertainty is large for many entries.

tested on: MILI (PIWIL2) piRISC loaded with L1MC piRNA (26 nt); assay: pre-steady-state target cleavage rate (min^-1); MIWI and MILI are mouse PIWI proteins and EfPiwi is from a freshwater sponge; tags in brackets are library labels; higher = faster piRNA-guided slicing of the target; details: guide: L1MC piRNA 5'p-UAACUAAAUACUAUGCAAGCUGUAGG; auxiliary factor: 500 nM mouse GTSF1
Method in brief: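 The pre-steady-state cleavage rate came from a burst-and-steady-state fit to pooled data from three Cleave-'n-Seq trials, in which uncleaved targets were sequenced and normalised to depth and to weakly complementary targets. Each reaction held 0.1 nM transcribed, DNA-blocked target RNA library and 1 nM active affinity-purified piRISC carrying one synthetic guide, with or without 500 nM GTSF1 partner protein, in HEPES–potassium acetate buffer at 33 °C for 0–8 or 0–960 min. k3 was capped at 0.0001 min^-1.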

Row | Sequence | pre-steady-state target cleavage rate
1 | UCCUGGAUGUGCUUGCAAUAGUAUUUAGUUA | 0.00398 ± 0.0037
2 | UCCUGGAUGUCGAAGCAUAGUCAUUUAGUUA | 0.00219 ± 0.0048
3 | UCCUGGAUGAGCUUGCACUAGUAUUUAGUUA | 0.00272 ± 0.004
4 | UCCUGGAUGACGCUUGCAUAGUAUUUAGUUA | 0.211 ± 0.022
5 | UCCUGGAUGUGCUUGCAUAGUAUAAAGAAA | 0.00156 ± 0.0086
6 | UCCUGGAUGAGCUUGCUUAGAAUUUAGUUA | 0.0121 ± 0.0047
7 | UCCUGGAUCAGCUUGCAUAGUUUUAGUUA | 0.00374 ± 0.0036
8 | UCCUGGAUGUGGUUGCUUAGUAUUUAGUUA | 0.107 ± 0.02
9 | UCCUGGAUGAGCUUGCAUAGUAAAAACAAA | 0.00142 ± 0.0077
10 | UCCUGGAUCAGCUUGCAUAGUAUUAUGUAA | 0.00562 ± 0.0035
11 | UCCUGGAUGUGCUUGCAUACUUUUUAGUUA | 0.00203 ± 0.0082
12 | UCCUGGAUGUCGUUGCAUAGUUUUAGUUA | 0.000802 ± 0.014
13 | UCCUGGAUGAGGUUGCAUAGUAUUUACAAA | 0.00042 ± 0.017
14 | UCCUGGAUGUCGUUGCAUAGUUUUUAGUUA | 0.00524 ± 0.0046
15 | UCCUGGAUGUCGUUGCUAUAGUAUUUAGUUA | 0.00133 ± 0.0073
16 | UCCUGGAUGUCCUUGCAUAGUAUUUUCUAA | 0.0134 ± 0.0068
17 | UCCUGGAUGUCGUUGCGUAGUAUUUAGUUA | 0.0164 ± 0.0059
18 | UCCUGGAUGUCCUUGCAUAGAUUUAGUUA | 0.00288 ± 0.0048
19 | UCCUGGAUGUGCUUGCUAUGUAUUUAGUAA | 0.00203 ± 0.0054
20 | UCCUGGAACAGGUUGCAUAGUUUUUAGUUA | 0.0335 ± 0.0065
21 | UCCUGGAUGAGCUUGCAUACAAUUUAGUUA | 0.00171 ± 0.0058
22 | UCCUGGAUGUCGAACCAUAGUAUUUAGUUA | 0.00718 ± 0.0019
23 | UCCUGGAUGUCGAAGCCUAGUAUUUAGUUA | 0.00214 ± 0.0026
24 | UCCUGGAUCAGCUUGCAUACAUUUUAGUUA | 0.00212 ± 0.005

Fetched one by one from above (2):
Row | Sequence | pre-steady-state target cleavage rate
3 | UCCUGGAUGAGCUUGCACUAGUAUUUAGUUA | 0.00272 ± 0.004
7 | UCCUGGAUCAGCUUGCAUAGUUUUAGUUA | 0.00374 ± 0.0036
